According to patent US20100113513A1, “QUINOLINE DERIVATIVES AS FUNGICIDES” (SYNGENTA CROP PROTECTION, INC., priority 2007, published 2010):
Some results were stated once for a whole list of compounds, not compound by compound. At least one compound was matched to its structure with a doubt left.

How the values were obtained:
Plasmopara viticola = Plasmopara viticola (downy mildew of grapevine) grapevine leaf disk test, preventive; format: in vivo; settings: 200 ppm; grapevine leaf disks; assessed seven days after inoculation
[1] = tested on: Erysiphe graminis f.sp. tritici; experiment: Erysiphe graminis f.sp. tritici (wheat powdery mildew) wheat leaf segment test, preventive; format: in vivo; settings: 200 ppm; wheat leaf segments; assessed four days after inoculation
Septoria tritici = Septoria tritici (leaf blotch) growth inhibition in nutrient broth, photometric; format: cell-based; settings: 200 ppm, 24 C, inhibition of growth after 72 hrs

SMILES	control of fungal infection, Plasmopara viticola (Plasmopara viticola) [%]	control of fungal infection, Erysiphe graminis f.sp. tritici [1] [%]	control of fungal infection, Septoria tritici (Septoria tritici) [%]
COC(Oc1ccc2ncc(I)cc2c1)C(=O)NC(C)(C)C (racemic) [25 (161)]	≥ 60		
COCC(C)(C)NC(=O)C(OC)Oc1cc(Br)c2ncc(Br)cc2c1 (stereo not drawn) [11 (161)]	≥ 60		
COCCOC(Oc1ccc2ncc(Br)cc2c1)C(=O)NC(C)(C)C (stereo not drawn) [16 (161)]	≥ 60		
COCC(C)(C)NC(=O)C(OC)Oc1cc(C)c2ncc(Br)cc2c1 (stereo not drawn) [23 (161)]	≥ 60		
CCC(Oc1cc(C)c2ncc(I)cc2c1)C(=O)NCCC1OCCO1 (stereo not drawn) [33 (162)]		≥ 60	≥ 60
COC(Oc1cc(C)c2ncc(I)cc2c1)C(=O)NC(C)(C)C=O (stereo not drawn) [35 (161)]		≥ 60	≥ 60
CCC(Oc1cc(Cl)c2ncc(Br)cc2c1)C(=O)NC(C)(C)CO (stereo not drawn) [39 (94)]		≥ 60	≥ 60
COCC(C)(C)NC(=O)C(Oc1ccc2ncc(Br)cc2c1)C1CC1 (stereo not drawn) [42 (161)]	≥ 60		
COCC(C)(C)NC(=O)C(OC)Oc1cc(C)c2ncc(Br)cc2c1 (stereo not drawn) [47 (91)]		≥ 60	≥ 60
COCC(C)(C)NC(=O)C(OC)Oc1cc(Br)c2ncc(Br)cc2c1 (stereo not drawn) [47 (99)]		≥ 60	≥ 60
CCC(Oc1cc(C)c2ncc(Br)cc2c1)C(=O)NC(C)(C#N)COC (stereo not drawn) [52 (90), 2-(3-Bromo-8-methyl-quinolin-6-yloxy)-N-(cyano-methoxymethyl-methyl-methyl)-butyramide]	≥ 60		
COCC(C)(C#N)NC(=O)C(OC)Oc1cc(C)c2ncc(Br)cc2c1 (stereo not drawn) [52 (91)]		≥ 60	≥ 60
COCC(C)(C#N)NC(=O)C(OC)Oc1cc(Br)c2ncc(Br)cc2c1 (stereo not drawn) [52 (99)]		≥ 60	≥ 60
CCOC(Oc1ccc2ncc(Br)cc2c1)C(=O)NC(C)(C#N)COC (stereo not drawn) [52 (156), 2-(3-Bromo-quinolin-6-yloxy)-N-(1-cyano-2-methoxy-1-methyl-ethyl)-2-ethoxy-acetamide]	≥ 60		
CCC(Oc1ccc2ncc(Br)cc2c1)C(=O)NC(C)(C)C(=O)OC (stereo not drawn) [60 (154)]	≥ 60		
CCC(Oc1cc(C)c2ncc(I)cc2c1)C(=O)NC(C)(C)CCSC (stereo not drawn) [68 (161)]		≥ 60	≥ 60
CCC(Oc1cc(C)c2ncc(I)cc2c1)C(=O)NC(C)(C)C=O (stereo not drawn) [76 (161)]		≥ 60	≥ 60
C#CCC(C)(C)NC(=O)C(CC)Oc1ccc2ncc(I)cc2c1 (stereo not drawn) [85 (158)]	≥ 60		≥ 60
COC(Oc1ccc2ncc(Br)cc2c1)C(=O)NCCN(C)C (stereo not drawn) [90 (162)]	≥ 60		
COC(Oc1ccc2ncc(Br)cc2c1)C(=O)NC(C)(C)c1cccc(Cl)c1 (stereo not drawn) [115 (162)]	≥ 60		≥ 60
CCC(Oc1ccc2ncc(I)cc2c1)C(=O)Nc1ccccc1Cl (stereo not drawn) [183 (162)]		≥ 60	≥ 60
CCC(Oc1ccc2ncc(Br)cc2c1)C(=O)NC(C)(C#N)C(C)C (stereo not drawn) [222 (162)]	≥ 60		
CCC(Oc1ccc2ncc(I)cc2c1)C(=O)NC(C)(C)CCF (stereo not drawn) [275 (158), 2-(3-iodo-quinolin-6-yloxy)-N-(3-fluoro-1,1-dimethyl-propyl) butyramide]		≥ 60	≥ 60
